The structures given here were assigned with low confidence; some may be wrong.
Molecular target: S-nitrosoglutathione reductase (GSNOR) (Homo sapiens, UniProt P11766)
Assay: GSNOR assay (inhibition of GSNOR activity, NADH absorbance at 340 nm)
Format: biochemical
Settings: read-out: IC50 range; GSNOR inhibitor activity, Tables 1-6

The chains behind the UniProt entries cited, without tags or fusion partners.
UniProt P11766, whole entry: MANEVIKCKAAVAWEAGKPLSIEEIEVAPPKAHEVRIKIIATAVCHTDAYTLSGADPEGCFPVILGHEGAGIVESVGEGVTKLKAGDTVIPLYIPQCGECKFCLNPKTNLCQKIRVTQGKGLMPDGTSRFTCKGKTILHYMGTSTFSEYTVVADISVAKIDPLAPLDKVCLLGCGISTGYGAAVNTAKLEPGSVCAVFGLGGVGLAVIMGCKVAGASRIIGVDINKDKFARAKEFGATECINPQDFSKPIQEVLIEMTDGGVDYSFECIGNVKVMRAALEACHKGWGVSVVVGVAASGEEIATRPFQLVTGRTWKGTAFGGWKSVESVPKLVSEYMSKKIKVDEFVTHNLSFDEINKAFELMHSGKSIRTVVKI

In the case of O=C(O)c1ccc(NS(=O)(=O)c2ccc(O)c(F)c2)cc1, the IC50 is reported as 1 to 10 µM.

Reference: patent US20140094465A1, “Compounds as S-Nitrosoglutathione Reductase Inhibitors” (N30 PHARMACEUTICALS, INC., priority 2011, published 2014)
